From publication PMC7948952, “Structural basis for multifunctional roles of human Ints3 C-terminal domain” (The Journal of Biological Chemistry, 2020)
A weaker result is weaker than the reference pair of the same experiment.

Chains of the proteins cited; added tags and fusions are not shown. A line that says so, or that is headed by a name, gives the form on record, which may keep a tag or linker.
Ints3-555-976 R788E/K789E (human), one chain, as listed by the source R788E K789E: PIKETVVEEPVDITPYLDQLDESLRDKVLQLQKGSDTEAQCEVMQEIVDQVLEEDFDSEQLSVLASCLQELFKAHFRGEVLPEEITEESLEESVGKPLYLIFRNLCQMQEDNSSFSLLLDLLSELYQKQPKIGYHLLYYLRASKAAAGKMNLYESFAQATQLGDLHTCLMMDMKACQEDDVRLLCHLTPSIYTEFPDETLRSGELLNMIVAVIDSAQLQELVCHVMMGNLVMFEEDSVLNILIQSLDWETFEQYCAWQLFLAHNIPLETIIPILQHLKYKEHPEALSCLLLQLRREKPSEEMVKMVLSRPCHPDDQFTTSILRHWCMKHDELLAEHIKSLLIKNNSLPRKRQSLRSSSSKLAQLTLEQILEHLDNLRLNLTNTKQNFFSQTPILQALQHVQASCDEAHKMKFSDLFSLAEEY
Ints3-555-976 M780A/M781A (human), one chain, as listed by the source M780A M781A: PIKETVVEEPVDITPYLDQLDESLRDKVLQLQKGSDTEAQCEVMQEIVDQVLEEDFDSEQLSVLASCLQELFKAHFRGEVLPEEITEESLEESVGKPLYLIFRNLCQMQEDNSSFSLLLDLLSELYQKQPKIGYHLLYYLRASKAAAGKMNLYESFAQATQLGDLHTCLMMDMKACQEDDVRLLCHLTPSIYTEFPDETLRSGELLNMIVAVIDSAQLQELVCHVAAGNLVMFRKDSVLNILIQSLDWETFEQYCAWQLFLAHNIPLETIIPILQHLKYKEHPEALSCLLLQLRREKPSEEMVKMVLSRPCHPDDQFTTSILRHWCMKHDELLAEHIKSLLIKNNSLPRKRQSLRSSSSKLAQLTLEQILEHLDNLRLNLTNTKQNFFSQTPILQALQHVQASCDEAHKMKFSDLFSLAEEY
Ints3-555-976 K851E (human), one chain, as listed by the source K851E: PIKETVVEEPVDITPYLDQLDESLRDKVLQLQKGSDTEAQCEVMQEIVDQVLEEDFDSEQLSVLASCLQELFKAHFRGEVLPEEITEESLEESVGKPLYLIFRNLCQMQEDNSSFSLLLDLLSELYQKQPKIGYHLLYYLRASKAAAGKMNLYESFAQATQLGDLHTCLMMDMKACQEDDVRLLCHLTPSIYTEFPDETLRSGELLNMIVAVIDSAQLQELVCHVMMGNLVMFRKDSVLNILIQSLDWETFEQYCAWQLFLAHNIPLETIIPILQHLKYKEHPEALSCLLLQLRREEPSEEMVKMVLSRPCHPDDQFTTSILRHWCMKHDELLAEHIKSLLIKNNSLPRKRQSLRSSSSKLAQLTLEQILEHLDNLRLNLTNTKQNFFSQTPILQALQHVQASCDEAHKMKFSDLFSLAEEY

Columns and labels:
Assay in all cases: EMSA
[1] = system: Ints3-555-976 M780A/M781A (human); settings: significantly reduced vs WT, 20 mM Hepes pH 7.4, 100 mM NaCl, 1 mM MgCl2, 1 mg/ml BSA, 2 mM DTT, 5% glycerol, on ice 30 min, 7.5 nM probe, native 5% PAGE in 1X TBE, recombinant protein, residues 555-976, label: 5' 32P
[2] = system: Ints3-555-976 K851E (human); settings: significantly reduced vs WT, 20 mM Hepes pH 7.4, 100 mM NaCl, 1 mM MgCl2, 1 mg/ml BSA, 2 mM DTT, 5% glycerol, on ice 30 min, 7.5 nM probe, native 5% PAGE in 1X TBE, recombinant protein, residues 555-976, label: 5' 32P
[3] = system: Ints3-555-976 R788E/K789E (human); settings: reduced vs WT, 0-25 uM; 20 mM Hepes pH 7.4, 100 mM NaCl, 1 mM MgCl2, 1 mg/ml BSA, 2 mM DTT, 5% glycerol; on ice 30 min; 7.5 nM probe; native 5% PAGE in 1X TBE; recombinant protein; residues 555-976; label: 5' 32P
[4] = up to 200 uM, single-stranded DNA

Row | Sequence | binding result [1, 4] | binding result [2, 4] | binding result ([1]; 0-25 uM) | binding result ([2]; 0-25 uM) | binding result [3]
1 | TTTTTTTTTTTTTTTTTTTTTTTTTTTTTT [dT30] | binds more weakly | binds more weakly | – | – | –
2 | UUUUUUUUUUUUUUUUUUUUUUUUUUUUUU [rU30] | – | – | binds more weakly | binds more weakly | binds more weakly
